Measurements as given in the supplement of paper PMC10626197.
Some well-known active drugs show little effect in this data set, so a weak value is uncertain.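 The breast cancer cell line MCF7 was treated with drug pairs over a dose grid. Each plate included DMSO-only wells as the untreated reference and a doxorubicin series as the total-kill control. These viability readings have no hit threshold applied.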

System: MCF7
Test: cell viability relative to DMSO control (raw); higher = more viable cells
Details: exposure time 72 h
Procedure: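 MCF7 cells, 1000 cells/well in 384-well plates, treated with 6x6 dose matrices of drug pairs (1:3 serial dilutions, DMSO as lowest dose) for 72 h at 37 °C. Viability read by CellTiter-Glo luminescence, 3 biological replicates. Normalised viability sets 0% at the highest doxorubicin dose and 100% at the 0,0 µM control per combination.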

C[C@@H](Oc1cc(-c2cnn(C3CCNCC3)c2)cnc1N)c1c(Cl)ccc(F)c1Cl [Crizotinib] + CCOC(=O)C(C)(C)Oc1ccc(Cl)cc1 [Clofibrate]
cell viability [%]
Details	drug 2 concentration 0 µM	drug 2 concentration 0.0308642 µM	drug 2 concentration 0.0925926 µM	drug 2 concentration 0.277778 µM	drug 2 concentration 0.833333 µM	drug 2 concentration 2.5 µM
drug 1 concentration 0.0987654 µM	106	117	110	114	113	114
drug 1 concentration 0.296296 µM	120	121	129	112	118	116
drug 1 concentration 0.888889 µM	107	105	101	113	108	108
drug 1 concentration 2.66667 µM	78.5	76.8	77.6	83.9	80.3	80.7
drug 1 concentration 8 µM	18.4	14.8	13.4	14.7	18.9	17.5

C#Cc1cccc(Nc2ncnc3cc(OCCOC)c(OCCOC)cc23)c1 [Erlotinib] + N#CC1(c2ccc(NC(=O)c3cccnc3NCc3ccncc3)cc2)CCCC1 [Apatinib]
cell viability [%]
Details	drug 2 concentration 0 µM	drug 2 concentration 0.0617284 µM	drug 2 concentration 0.185185 µM	drug 2 concentration 0.555556 µM	drug 2 concentration 1.66667 µM	drug 2 concentration 5 µM
drug 1 concentration 0.123457 µM	111	105	110	111	105	104
drug 1 concentration 0.37037 µM	112	107	112	115	116	111
drug 1 concentration 1.11111 µM	110	99.1	104	105	109	107
drug 1 concentration 3.33333 µM	113	113	97.2	105	110	104
drug 1 concentration 10 µM	89	81.1	91.2	86.8	83.9	82.4

C/C(=C\c1csc(C)n1)[C@@H]1C[C@@H]2O[C@]2(C)CCC[C@H](C)[C@H](O)[C@@H](C)C(=O)C(C)(C)[C@@H](O)CC(=O)N1 [ixabepilone] + CN(C)C1CCN(C(=O)c2ccc(NC(=O)Nc3ccc(-c4nc(N5CCOCC5)nc(N5CCOCC5)n4)cc3)cc2)CC1 [Gedatolisib (PF-05212384; PKI-587)]
cell viability [%]
Details	drug 2 concentration 0 µM	drug 2 concentration 0.0148148 µM	drug 2 concentration 0.0444444 µM	drug 2 concentration 0.133333 µM	drug 2 concentration 0.4 µM	drug 2 concentration 1.2 µM
drug 1 concentration 0.00185185 µM	96.2	68.9	54.1	43.8	38.1	36.7
drug 1 concentration 0.00555556 µM	105	76.4	53.3	43.8	40.7	36.5
drug 1 concentration 0.0166667 µM	92.6	70.9	56.6	43.6	39.4	38.8
drug 1 concentration 0.05 µM	108	82.1	55.2	45.1	40.9	38.7
drug 1 concentration 0.15 µM	116	75.1	55.5	45.6	40	38

CC[C@]1(O)C[C@H]2CN(CCc3c([nH]c4ccccc34)[C@@](C(=O)OC)(c3cc4c(cc3OC)N(C=O)[C@H]3[C@@](O)(C(=O)OC)[C@H](OC(C)=O)[C@]5(CC)C=CCN6CC[C@]43[C@@H]65)C2)C1 [Vincristine] + Cn1cc(-c2ccc3nnc(C(F)(F)c4ccc5ncccc5c4)n3n2)cn1 [JNJ-38877605]
cell viability [%]
Details	drug 2 concentration 0 µM	drug 2 concentration 0.0617284 µM	drug 2 concentration 0.185185 µM	drug 2 concentration 0.555556 µM	drug 2 concentration 1.66667 µM	drug 2 concentration 5 µM
drug 1 concentration 0.0037037 µM	72.2	70	68.6	74.5	71.9	74.7
drug 1 concentration 0.0111111 µM	77	74.1	79	75.2	76.6	84.3
drug 1 concentration 0.0333333 µM	77.8	81.7	78.6	85.5	85.2	76.2
drug 1 concentration 0.1 µM	75	76.8	69.43	75.9	78.5	73.6
drug 1 concentration 0.3 µM	68.4	72.5	71.9	75.3	77.7	72.9

CC(C)(C#N)c1cc(Cn2cncn2)cc(C(C)(C)C#N)c1 [Anastrozole] + CN(C)C1CCN(C(=O)c2ccc(NC(=O)Nc3ccc(-c4nc(N5CCOCC5)nc(N5CCOCC5)n4)cc3)cc2)CC1 [Gedatolisib (PF-05212384; PKI-587)]
cell viability [%]
Details	drug 2 concentration 0 µM	drug 2 concentration 0.0148148 µM	drug 2 concentration 0.0444444 µM	drug 2 concentration 0.133333 µM	drug 2 concentration 0.4 µM	drug 2 concentration 1.2 µM
drug 1 concentration 0.00864198 µM	97.6	70.5	45.8	34.5	26.4	23.9
drug 1 concentration 0.0259259 µM	97.5	70	48.3	31.2	23.7	22
drug 1 concentration 0.0777778 µM	87.9	66	47.5	32	26.2	20.3
drug 1 concentration 0.233333 µM	91.7	66.2	47.4	32.3	19.9	20.7
drug 1 concentration 0.7 µM	109	73.3	50.3	31	27	24.4

C/C(=C\c1csc(C)n1)[C@@H]1C[C@@H]2O[C@]2(C)CCC[C@H](C)[C@H](O)[C@@H](C)C(=O)C(C)(C)[C@@H](O)CC(=O)N1 [ixabepilone] + CN(C)C(=O)c1cc2cnc(Nc3ccc(N4CCNCC4)cn3)nc2n1C1CCCC1 [Ribociclib]
cell viability [%]
Details	drug 2 concentration 0 µM	drug 2 concentration 0.123457 µM	drug 2 concentration 0.37037 µM	drug 2 concentration 1.11111 µM	drug 2 concentration 3.33333 µM	drug 2 concentration 10 µM
drug 1 concentration 0.00185185 µM	91.3	87.3	87.7	84	84.3	85.5
drug 1 concentration 0.00555556 µM	88.3	85.1	83.8	83.5	88.4	85.3
drug 1 concentration 0.0166667 µM	76.9	78.9	78.3	82.7	76.8	75.2
drug 1 concentration 0.05 µM	79.1	89.6	90.9	87.8	84.6	74.5
drug 1 concentration 0.15 µM	91.6	99	91.5	85.2	83.6	73.9

CC(=O)O[C@@]12CO[C@@H]1C[C@H](O)[C@@]1(C)C(=O)[C@H](O)C3=C(C)[C@@H](OC(=O)[C@H](O)[C@@H](NC(=O)OC(C)(C)C)c4ccccc4)C[C@@](O)([C@@H](OC(=O)c4ccccc4)[C@H]21)C3(C)C [Docetaxel] + CC1=C(/C=C/C(C)=C/C=C/C(C)=C\C(=O)O)C(C)(C)CCC1 [13-cis-Retinoic acid]
cell viability [%]
Details	drug 2 concentration 0 µM	drug 2 concentration 0.246914 µM	drug 2 concentration 0.740741 µM	drug 2 concentration 2.22222 µM	drug 2 concentration 6.66667 µM	drug 2 concentration 20 µM
drug 1 concentration 0.00617284 µM	84	93.2	94.5	98.9	85.8	75.6
drug 1 concentration 0.0185185 µM	107	111	105	96.8	99.6	90.4
drug 1 concentration 0.0555556 µM	89.3	91.9	96.2	93.4	92.9	87
drug 1 concentration 0.166667 µM	104	96.2	96.6	104	97.7	97.9
drug 1 concentration 0.5 µM	97.3	107	96	90.4	85.8	75.5

C/C(=C\c1csc(C)n1)[C@@H]1C[C@@H]2O[C@]2(C)CCC[C@H](C)[C@H](O)[C@@H](C)C(=O)C(C)(C)[C@@H](O)CC(=O)N1 [ixabepilone] + CC(=O)[C@H]1CC[C@H]2[C@@H]3CCC4=CC(=O)CC[C@]4(C)[C@H]3CC[C@]12C [Progesterone]
cell viability [%]
Details	drug 2 concentration 0 µM	drug 2 concentration 0.0493827 µM	drug 2 concentration 0.148148 µM	drug 2 concentration 0.444444 µM	drug 2 concentration 1.33333 µM	drug 2 concentration 4 µM
drug 1 concentration 0.00185185 µM	95.2	98.6	92.8	103	89.6	85.9
drug 1 concentration 0.00555556 µM	104	104	106	103	106	95.4
drug 1 concentration 0.0166667 µM	89.1	95.9	92.4	92	93.6	87.6
drug 1 concentration 0.05 µM	101	101	97.4	102	98.8	82.6
drug 1 concentration 0.15 µM	99.2	101	101	99.2	103	97.6

Cc1ccc(Nc2nccc(N(C)c3ccc4c(C)n(C)nc4c3)n2)cc1S(N)(=O)=O [Pazopanib] + CC(C)C[C@@H](C(=O)N[C@H](C(=O)OC1CCCC1)c1ccccc1)[C@H](O)C(=O)NO [Tosedostat]
cell viability [%]
Details	drug 2 concentration 0 µM	drug 2 concentration 0.246914 µM	drug 2 concentration 0.740741 µM	drug 2 concentration 2.22222 µM	drug 2 concentration 6.66667 µM	drug 2 concentration 20 µM
drug 1 concentration 0.617284 µM	88.8	69.7	68.4	62.01	57.5	42.2
drug 1 concentration 1.85185 µM	85.6	75.2	72.1	64.8	58.4	48.5
drug 1 concentration 5.55556 µM	78.8	75.8	71	63	55.2	41.1
drug 1 concentration 16.6667 µM	51.4	55.4	52	50.7	43	33.4
drug 1 concentration 50 µM	62.8	54.9	48.8	51.3	34.9	33.5

CC[C@]1(O)C[C@H]2CN(CCc3c([nH]c4ccccc34)[C@@](C(=O)OC)(c3cc4c(cc3OC)N(C=O)[C@H]3[C@@](O)(C(=O)OC)[C@H](OC(C)=O)[C@]5(CC)C=CCN6CC[C@]43[C@@H]65)C2)C1 [Vincristine] + C=CC(=O)Nc1cccc(Nc2nc(Nc3ccc(OCCOC)cc3)ncc2F)c1 [Spebrutinib]
cell viability [%]
Details	drug 2 concentration 0 µM	drug 2 concentration 0.37037 µM	drug 2 concentration 1.11111 µM	drug 2 concentration 3.33333 µM	drug 2 concentration 10 µM	drug 2 concentration 30 µM
drug 1 concentration 0.0037037 µM	75.3	81.1	79.3	70.9	52.7	8.76
drug 1 concentration 0.0111111 µM	86.6	92.1	88.6	73.3	56.2	11.9
drug 1 concentration 0.0333333 µM	80	87.4	87.6	78.6	55.3	16.1
drug 1 concentration 0.1 µM	84.7	90.7	88.3	79.5	61.3	11.1
drug 1 concentration 0.3 µM	80.2	89.9	86.2	85.8	64.3	7.62

CN(Cc1cnc2nc(N)nc(N)c2n1)c1ccc(C(=O)N[C@@H](CCC(=O)O)C(=O)O)cc1 [Methotrexate] + Cc1ncc(NC(=O)c2ccc(CN3CCN(C)CC3)c(C(F)(F)F)c2)cc1Nc1nccc(-c2cccnc2)n1 [Flumatinib (mesylate)]
cell viability [%]
Details	drug 2 concentration 0 µM	drug 2 concentration 0.617284 µM	drug 2 concentration 1.85185 µM	drug 2 concentration 5.55556 µM	drug 2 concentration 16.6667 µM	drug 2 concentration 50 µM
drug 1 concentration 0.00617284 µM	100	90.5	94.7	91.1	87.9	0.493
drug 1 concentration 0.0185185 µM	80.2	88	85.9	79.76	52.3	0.27
drug 1 concentration 0.0555556 µM	83.5	69.7	63.1	63.1	0.946	0.17
drug 1 concentration 0.166667 µM	84.4	74.65	66.6	69.4	0.412	0.161
drug 1 concentration 0.5 µM	83.6	80.2	71.2	70.5	0.761	0.323
